Results deposited as PubChem BioAssay AID1259405 (NCATS, 2018)

Assay: 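Mouse-designed siRNAs used to find CHO productivity engineering targets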 (primary screen)
Cells: Chinese hamster CHO-K1 ovary cells with stable secreted eGFP expression
Knock-down reagent: single siRNA against mouse genes, 0.8 pmol siRNA per well (2 µl of 400 nM stock)
Timing: 3 days
Measurement: 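Per-well intracellular GFP measured by laser scanning cytometry, plus viability from ATP luminescence, each relative to plate median of non-targeting control wells, in %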
Scale: GFP, % of control: higher = more GFP per well, higher productivity; viability (ATP), % of control: higher = more viable cells (more ATP)
Rule for the call: 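Called active when intracellular GFP, relative to negative control, is at or above 120%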
Shown is a random part of about 50,000 deposited reagents. About 4,000 of all reagents (8%) were called active. 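Mouse siRNA library applied to hamster cells; one well for each siRNA.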 Entries without a mark were called inactive. Reagents against one gene are numbered here. Reagent sequences are not shown.

| gene knocked down | reagent | GFP, % of control | viability (ATP), % of control |
| --- | --- | --- | --- |
| Rab32 | 1 | 110 | 103 |
| Rab32 | 2 | 82.9 | 99 |
| Rab32 | 3 | 61.8 | 94.8 |
| Or2ag12 | 1 | 81.6 | 72.1 |
| Or2ag12 | 2 | 70.7 | 67.3 |
| Or2ag12 | 3 | 104 | 91.4 |
| Or4f7 | 1 | 130 (active) | 93.6 |
| Or4f7 | 2 | 113 | 51.4 |
| Or4f7 | 3 | 55.8 | 65.2 |
| Luc7l3 | 1 | 41.1 | 42.3 |
| Luc7l3 | 2 | 92.5 | 69 |
| Luc7l3 | 3 | 102 | 77.7 |
| Wsb2 | 1 | 73.3 | 69.4 |
| Wsb2 | 2 | 64 | 45.1 |
| Wsb2 | 3 | 56.8 | 76.3 |
| 4933409G03Rik | 1 | 85.1 | 69.5 |
| 4933409G03Rik | 2 | 147 (active) | 94.7 |
| 4933409G03Rik | 3 | 174 (active) | 153 |
| Plek | 1 | 73.5 | 68.5 |
| Plek | 2 | 52 | 80.2 |
| Plek | 3 | 80.7 | 85.6 |
| Mtrf1 | 1 | 118 | 73.8 |
| Mtrf1 | 2 | 91.8 | 67.8 |
| Mtrf1 | 3 | 82.1 | 77.8 |
| Or6c6c | 1 | 49.7 | 59.3 |
| Or6c6c | 2 | 58.5 | 56.2 |
| Or6c6c | 3 | 105 | 1.36 |
| Marco | 1 | 124 (active) | 114 |
| Marco | 2 | 81.9 | 69.6 |
| Marco | 3 | 60.6 | 67.6 |
| S100a6 | 1 | 98.7 | 96.2 |
| S100a6 | 2 | 67 | 87.6 |
| Tmem63a | 1 | 49.5 | 91.2 |
| Tmem63a | 2 | 76.5 | 107 |
| Tmem63a | 3 | 175 (active) | 128 |

Entries above whose gene name begins with S or s:
| gene knocked down | reagent | GFP, % of control | viability (ATP), % of control |
| --- | --- | --- | --- |
| S100a6 | 1 | 98.7 | 96.2 |
| S100a6 | 2 | 67 | 87.6 |

Additional entries follow:
| gene knocked down | reagent | GFP, % of control | viability (ATP), % of control |
| --- | --- | --- | --- |
| Coq10b | 1 | 41.8 | 36.7 |
| Coq10b | 2 | 91.5 | 80 |
| Coq10b | 3 | 85.9 | 68.7 |
| Eif2b4 | 1 | 33.2 | 45.4 |
| Eif2b4 | 2 | 69.9 | 61.7 |
| Eif2b4 | 3 | 58.2 | 49.7 |
| Marveld3 | 1 | 74.6 | 89.6 |
| Marveld3 | 2 | 78.3 | 89.8 |
| Marveld3 | 3 | 66.7 | 36.1 |
| Pcdh10 | 1 | 105 | 76.6 |
| Pcdh10 | 2 | 63.3 | 75.4 |
| Pcdh10 | 3 | 70.2 | 76.2 |
| Akr1c12 | 1 | 83.1 | 112 |
| Akr1c12 | 2 | 75.6 | 56.4 |
| Akr1c12 | 3 | 58.2 | 64.8 |
| Emilin1 | 1 | 69.8 | 114 |
| Emilin1 | 2 | 78 | 104 |
| Or4k37 | 1 | 67 | 63.8 |
| Or4k37 | 2 | 79.2 | 53.6 |
| Or4k37 | 3 | 99.6 | 83.3 |
| Drap1 | 1 | 86.8 | 75.1 |
| Drap1 | 2 | 72.4 | 47.9 |
| Lamp3 | 1 | 57.1 | 68.6 |
| Lamp3 | 2 | 78.2 | 82.7 |
| Lamp3 | 3 | 94.2 | 88.3 |
| Or1ab2 | 1 | 79.8 | 57.9 |
| Or1ab2 | 2 | 126 (active) | 75.2 |
| Or1ab2 | 3 | 91.1 | 99.9 |
| Tmem25 | 1 | 56.5 | 38.8 |
| Tmem25 | 2 | 89.6 | 106 |
| Tmem25 | 3 | 102 | 116 |
| Tmem59l | 1 | 77.7 | 83.8 |
| Tmem59l | 2 | 79.1 | 89 |
| Tmem59l | 3 | 102 | 107 |
| Pah | 1 | 73.5 | 89.1 |
| Pah | 2 | 114 | 109 |
| Pah | 3 | 88 | 76.8 |
| Zranb1 | 1 | 99.6 | 105 |
| Zranb1 | 2 | 73.8 | 83 |
| Zranb1 | 3 | 89.9 | 85.7 |
| Asb18 | 1 | 131 (active) | 80.3 |
| Asb18 | 2 | 65.5 | 87.6 |
| Asb18 | 3 | 145 (active) | 77.8 |
| Zfp202 | 1 | 111 | 80.5 |
| Zfp202 | 2 | 101 | 120 |
| Zfp202 | 3 | 82.8 | 92.2 |
| Opn1sw | 1 | 84.9 | 74.3 |
| Opn1sw | 2 | 44.7 | 64.3 |
| Opn1sw | 3 | 60.2 | 79.6 |
